Test results: the supplement of paper PMC5407854, “Inhibitor of ppGalNAc-T3-mediated O-glycosylation blocks cancer cell invasiveness and lowers FGF23 levels” (eLife, 2017)
Whole data set: some 1,700 compounds, median “T3 sensor activation Q score (MG/GFP ratio z-score vs DMSO controls)” near 0.25, cut for the highest 2% near 1.9. This is one part of the list.

System: ppGalNAc-T3 sensor
Assay: T3 sensor activation Q score (MG/GFP ratio z-score vs DMSO controls) (SD units); higher = more sensor activation (inhibition of ppGalNAc-T3 glycosylation)
Details: HEK293 sensor cells; 10 µM; 6 h
Experimental: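 Cells were treated with compound at 10 uM for 6 h, then MG/GFP ratio was read by flow cytometry (10,000 cells per well, duplicate wells). Q = (R - R_neg)/SD_neg relative to DMSO vehicle controls; the signal rises when the glycosyltransferase is inhibited.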

| SMILES | T3 sensor activation Q score |
| --- | --- |
| Cn1c(C(=O)c2ccncc2)cc2ccccc21 | -0.55 |
| Cc1c(Cl)cccc1NC(=O)CC1Sc2ccccc2NC1=O (stereo not drawn) | 1.1 |
| COc1ccc(C(=S)N2CCN(c3ccccc3C)CC2)cc1 | -0.65 |
| Nc1ccc2c(c1Cl)C(=O)c1ccc(N)c(Cl)c1C2=O | 0.55 |
| CCOC(=O)Nc1cc2c(c(N)n1)N=C(c1ccccc1)CN2 | 4 |
| CC(C)NCC1CCc2cc(CO)c([N+](=O)[O-])cc2N1 (stereo not drawn) | 1.05 |
| CCCc1nc2c([nH]1)c(=O)n(C)c(=O)n2C | -0.95 |
| Cc1nc([N+](=O)[O-])cn1-c1nc2ccccn2c1[N+](=O)[O-] | 0.25 |
| CC1(C)SC(C)(C)N(C=O)C1C(=O)O (stereo not drawn) | -0.2 |
| CCCCCOC(=O)Nc1nc(=O)n([C@@H]2O[C@H](C)[C@@H](O)[C@H]2O)cc1F | 0.7 |
| CC(C)N(Cc1ccccc1)S(=O)(=O)c1n[nH]c(C(C)(C)C)n1 | -0.95 |
| COC1OCC(O)C(NC(=O)N(C)N=O)C1O (stereo not drawn) | 1.4 |
| CCCCNC(=O)Nc1ccccc1CC | 0.85 |
| CCCCn1c(OC(=S)N(CC)CC)cc(C)nc1=S | 1.05 |
| Nc1cc(Nc2ccc(Br)cc2)nc(N)n1 | 0.4 |
| NS(=O)(=O)c1ccc(N=Nc2c(O)c(C(=O)O)cc3ccccc23)cc1 | 1.65 |
| Cc1cc2c(cc1[N+](=O)[O-])NC(CNC(C)C)CC2 (stereo not drawn) | 1.45 |
| COc1nc(N)nc2c1ncn2[C@@H]1O[C@H](CO)[C@@H](O)[C@@H]1O | 0.45 |
| CCn1c(=O)n(C)c2c(=O)n(C)c(=O)n(C)c21 | 1.3 |
| Cc1c(CCO)c(=O)n2n1CCCC2 | -0.55 |
| Oc1ccccc1-c1nc2c3ccccc3c3ccccc3c2[nH]1 | 0.3 |

Structures above that contain a COOH group:

| SMILES | T3 sensor activation Q score |
| --- | --- |
| CC1(C)SC(C)(C)N(C=O)C1C(=O)O (stereo not drawn) | -0.2 |
| NS(=O)(=O)c1ccc(N=Nc2c(O)c(C(=O)O)cc3ccccc23)cc1 | 1.65 |

The listing continues:

| SMILES | T3 sensor activation Q score |
| --- | --- |
| CC(C)C(=O)c1ccc(O)c(O)c1 | 0.85 |
| O=C(O)c1cc(O)ccc1N=Nc1ccccc1 | 1.1 |
| CCCCSc1nc(C(=O)O)cc(=O)[nH]1 | -0.95 |
| CN(CCC#N)c1ccc(/C=C(\C#N)c2cccc(C(F)(F)F)c2)cc1 | -0.05 |
| C/C(=N\NC(=S)N1CC2CCC(CC2)C1)c1cnccn1 | -1.2 |
| CCn1c2ccccc2c2c3ncc4cccn4c3ccc21 | -0.8 |
| Cc1nc2sc3c(c2c(=O)[nH]1)CCCC3 | 1 |
| CCOC(=O)c1cnn2c(SC)ncnc12 | 0.8 |
| CCC(C)NC(=S)Nc1ccccc1 (stereo not drawn) | 1.6 |
| O=C1CCC(N2C(=O)c3ccccc3C2=O)C(=O)N1 (stereo not drawn) | 0.95 |
| COc1cc2c(cc1OC)C(=O)Cc1ccc3c(c1CN(C)CC2)OCO3 | 1.5 |
| CCn1c2ccccc2nc2cc3c(cc21)c(Cl)c(=O)c1ccccc13 | 1.45 |
| O=C(Nc1ccc(C2=NCCCN2)cc1)Nc1ccc(C2=NCCCN2)cc1 | -1.5 |
| CC(C)(c1cc(Cl)c(O)c(CN2CCOCC2)c1)c1cc(Cl)c(O)c(CN2CCOCC2)c1 | 0.6 |
| Cc1cc(N2CCOCC2)nc(N2CCOCC2)n1 | 0 |
| CCOc1ccc(NC(=O)N(O)C2(C#N)CCCCC2)cc1 | 0.8 |
| Nc1nc(N)nc(-c2ccccc2-c2nc(N)nc(N)n2)n1 | 1.45 |
| C1COCCN1.O=C(O)C(C=C(Cl)Cl)N1CCOCC1 (stereo not drawn) | 0.9 |
| O=c1[nH]cnc2[nH]ncc12 | 0.8 |
| CC(C)c1nc2c([nH]1)c(=O)n(C)c(=O)n2C | -1.8 |
| CCOC(=O)C(=O)Cc1cccnn1 | 0.35 |

| SMILES | T3 sensor activation Q score |
| --- | --- |
| O=C(O)CCCC[C@@H]1SC[C@@H]2NC(=O)N[C@@H]21 | 0.5 |
| OC1COC(OCc2ccccc2)C(O)C1O (stereo not drawn) | 0.75 |
| Nc1cc(N)nc(CS)n1 | 0.95 |
| O=C1C(Br)=Cc2cccc3cccc1c23 | 0 |
| CCSc1ncc(CO)c(N)n1 | 0.85 |
| Nc1ccc2c(c1)nnn2-c1ccccc1 | 0.15 |
| CN(C)C/C=C/C(=O)Nc1cc2c(Nc3ccc(F)c(Cl)c3)ncnc2cc1O[C@H]1CCOC1 | -1.4 |
| N#Cc1nnn(-c2ccc(Cl)cc2)c1N | 0.9 |
| S=C(Nc1ccccc1)c1ccccn1 | -0.9 |
| C#CCC(Cc1cnc2nc(N)nc(N)c2n1)c1ccc(C(=O)N[C@@H](CCC(=O)O)C(=O)O)cc1 (stereo partly drawn) | -2.25 |
| Cc1ccc(S(=O)(=O)N(C)C)cc1[N+](=O)[O-] | -0.1 |
| NC(=Nc1ccc(N)cc1)C(N)=Nc1ccc(N)cc1 | -0.8 |
| C=C1CC2(OC1=O)c1ccccc1CCc1ccccc12 | -0.45 |
| O=[N+]([O-])c1cc(Cl)cc2c1nc(NCCO)c1ccccc12 | 0.25 |
| c1ccc2[nH]c(CCCCCc3nc4ccccc4[nH]3)nc2c1 | -0.5 |
| Clc1ccc2nc3ccccc3cc2c1 | 0.15 |
| CSc1ccc(NC(=O)Nc2ccccc2C(N)=O)cc1 | 0.5 |
| O=C1c2cc([N+](=O)[O-])ccc2-c2cc(Br)c(N=C(NO)C(F)(F)F)cc21 | -0.05 |
| C(=N\Nc1nnn(Cc2ccccc2)n1)/c1ccccc1 | 0.35 |
| CCCCOc1ccc(N=Nc2ccc(N)nc2N)cn1 | 1.7 |
| CCN(CC)C(=O)Cn1ccc(NC(C)=O)nc1=O | -0.65 |

| SMILES | T3 sensor activation Q score |
| --- | --- |
| CN(C)C(=S)/N=c1\ssc(=S)n1Cc1ccco1 | -1.4 |
| CC1=CC(C)(C)Nc2ccc(Cc3ccc4c(c3)C(C)=CC(C)(C)N4)cc21 | 1.8 |
| NC(=O)SCC(=O)Nc1ccccc1C(=O)O | 1 |
| Cc1cccnc1NC(=S)Nc1ncccc1C | 0.55 |
| Cn1c([N+](=O)[O-])cnc1N1CCN(c2nncs2)C1=O | -0.1 |
| CN(C)CCCn1c2c3ccccc3ccc2c2oc(=O)c3ccccc3c21 | 0.2 |
| COc1ccc2c(c1)CCCN2C(N)=Nc1ccc(Cl)cc1 | 1.1 |
| O=Cc1ccc(O)c2ncccc12 | -1.05 |
| O=C(O)C1OCC2(CO1)COC(C(=O)O)OC2 (stereo not drawn) | 0.6 |
| Cn1c(=O)c2[nH]c(N3CCCCC3)nc2n(C)c1=O | 1.9 |
| O=C(O)c1ccccc1C(=O)Nc1ccccc1[N+](=O)[O-] | -0.55 |
| CCCNC(=O)c1ccc(Cl)cc1Cl | -0.65 |
| OCCN1CCSC1=S | 1.4 |
| Cc1cc(N2CCN(C)CC2)n2nc(-c3ccc(Cl)cc3)nc2n1 | 1.25 |
| COc1cc(N=Nc2ccccc2C(=O)O)ccc1O | -0.8 |
| O=C(CC1(O)CCCCC1)OC1CCCC1 | -0.35 |
| CCOC(=O)c1cc[nH]c1CC(=O)NC | 0.6 |
| NC(=O)CCC(C(=O)O)N1C(=O)C2C3CCC(C3)C2C1=O (stereo not drawn) | 0.05 |
| CC(C)COc1nc2c(c(=O)n(C)c(=O)n2C)n1C | 1.35 |
| COc1ccc(N/C=C2\C(=O)CCc3c2oc2cc(Cl)c(O)c(Cl)c32)cc1 | 0.3 |

A second format for some results above.
SMILES	T3 sensor activation Q score
N#Cc1nnn(-c2ccc(Cl)cc2)c1N	0.9
S=C(Nc1ccccc1)c1ccccn1	-0.9
C#CCC(Cc1cnc2nc(N)nc(N)c2n1)c1ccc(C(=O)N[C@@H](CCC(=O)O)C(=O)O)cc1 (stereo partly drawn)	-2.25
Cc1ccc(S(=O)(=O)N(C)C)cc1[N+](=O)[O-]	-0.1
NC(=Nc1ccc(N)cc1)C(N)=Nc1ccc(N)cc1	-0.8
C=C1CC2(OC1=O)c1ccccc1CCc1ccccc12	-0.45
O=[N+]([O-])c1cc(Cl)cc2c1nc(NCCO)c1ccccc12	0.25
c1ccc2[nH]c(CCCCCc3nc4ccccc4[nH]3)nc2c1	-0.5
Clc1ccc2nc3ccccc3cc2c1	0.15
CSc1ccc(NC(=O)Nc2ccccc2C(N)=O)cc1	0.5
O=C1c2cc([N+](=O)[O-])ccc2-c2cc(Br)c(N=C(NO)C(F)(F)F)cc21	-0.05
C(=N\Nc1nnn(Cc2ccccc2)n1)/c1ccccc1	0.35
CCCCOc1ccc(N=Nc2ccc(N)nc2N)cn1	1.7
CCN(CC)C(=O)Cn1ccc(NC(C)=O)nc1=O	-0.65
CN(C)C(=S)/N=c1\ssc(=S)n1Cc1ccco1	-1.4
CC1=CC(C)(C)Nc2ccc(Cc3ccc4c(c3)C(C)=CC(C)(C)N4)cc21	1.8
NC(=O)SCC(=O)Nc1ccccc1C(=O)O	1
Cc1cccnc1NC(=S)Nc1ncccc1C	0.55
Cn1c([N+](=O)[O-])cnc1N1CCN(c2nncs2)C1=O	-0.1
CN(C)CCCn1c2c3ccccc3ccc2c2oc(=O)c3ccccc3c21	0.2
COc1ccc2c(c1)CCCN2C(N)=Nc1ccc(Cl)cc1	1.1
O=Cc1ccc(O)c2ncccc12	-1.05
O=C(O)C1OCC2(CO1)COC(C(=O)O)OC2 (stereo not drawn)	0.6
Cn1c(=O)c2[nH]c(N3CCCCC3)nc2n(C)c1=O	1.9
O=C(O)c1ccccc1C(=O)Nc1ccccc1[N+](=O)[O-]	-0.55
CCCNC(=O)c1ccc(Cl)cc1Cl	-0.65
